The assay can be described thus: qHTS Assay for Modulators of Lamin A Splicing. The note with it: HeLa LMNA splicing GFP/RFP minigene ratio, 48 h. An outline of the steps:
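S3 HeLa cells stably expressing lamin A-EGFP splicing minigene plus DsRed2, 600 cells/well, 48 h compound exposure at 37C. Laser-scanning cytometry; analysed as GFP (500-530 nm)/RFP (575-640 nm) total intensity ratio; 0.5% DMSO vehicle.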
On the technique in general: In qHTS, concentration-response curves come from the screen itself.

Where [1] appears, read: measured here: GFP splicing reporter channel.
Setting [2] is: measured here: RFP viability control channel.

Some of the results follow. The main result of the screen is listed elsewhere. These columns were measured beside it and carry no call. Compounds called inactive in the main read-out are mostly missing here. Words in brackets tell the shape of the fitted curve; partial curves, single points and poor fits give uncertain potencies.

In the case of `COc1cc2c(C#N)c(N3CCN(c4ccccc4OC)CC3)nc(N)c2c(N)n1`, the concentration at half-maximal activity (AC50) (as a rule, the concentration giving half of the maximal activity seen) is, setting by setting: under setting [1], 35.5 µM [falling, single point]; under setting [2], 35.5 µM [falling, single point].

For the compound `Cc1noc(C)c1-c1ccc2ncnc(NC3CC3)c2c1`, the half-maximal activity concentration (AC50) under setting [1] is 7.94 µM [falling, partial curve] and the concentration at half-maximal activity (AC50) under setting [2] is 6.31 µM [rising, single point].

In the case of `COc1ccc(OC)c(Nc2ncnc3c2cnn3-c2cccc(Cl)c2)c1`, the AC50 under setting [2] is 5.01 µM [rising, partial curve].

As to `Cc1ccc(C(C)NC(=O)/C(C#N)=C\c2c(C)[nH]c3ccccc23)cc1` (configuration not stated), the half-maximal activity concentration (AC50) is 20 µM [rising, single point] under setting [1] and 15.8 µM [rising, single point] under setting [2].

As for `Cc1ccc(C)c(SCC(=O)NC(=O)NCc2ccccc2)c1`, the AC50 was 31.6 µM [rising, single point] under setting [1] and 35.5 µM [rising, single point] under setting [2].

Regarding `O=C(N/N=C1/CC2C=CCC12)c1ccco1` (configuration not stated), the AC50 under setting [2] was 2.82 µM [rising, single point].

On to `COc1cccc(N2CCN(C(=O)c3nc4nc(C)cc(C)n4n3)CC2)c1`, for which the half-maximal activity concentration (AC50) is 3.16 µM [falling, partial curve, poor fit] under setting [1] and 11.2 µM [falling, partial curve, poor fit] under setting [2].

Take `C[C@@H]1C=C[C@](Cc2ccccc2)(C(=O)NCC2CC2)N1C(=O)c1ccccc1`: under setting [2], the concentration at half-maximal activity (AC50) was 31.6 µM [rising, single point].

Turning to `Cc1cc(/C=C(/C#N)c2cccc(F)c2)c(C)n1-c1cccnc1`, the AC50 under setting [1] was 25.1 µM [rising, single point] and the AC50 under setting [2] was 35.5 µM [rising, single point].

As for `O=C1CC(c2ccccc2F)c2cc3c(cc2N1)CCC3` (configuration not stated), the AC50 under setting [1] is 5.62 µM [falling, full curve] and the AC50 under setting [2] is 7.08 µM [falling, full curve].

For `O=C(c1nc2ccc(Cl)cn2c1CNCCn1ccnc1)N1CCCCCCC1`, under setting [2], the AC50 was 0.141 µM [falling, full curve, poor fit].

Turning to `COc1ccc(NC(=O)c2cc(S(=O)(=O)NCC3COc4ccccc4O3)ccc2F)cc1` (configuration not stated), the AC50 under setting [2] is 31.6 µM [rising, single point].

For `COc1ccc(S(=O)(=O)NCC(c2ccc(N(C)C)cc2)N2CCc3ccccc32)cc1` (configuration not stated), the concentration at half-maximal activity (AC50) under setting [1] is 10 µM [falling, partial curve, poor fit].

On to `O=C1CC(c2ccc(F)cc2)C2=C(CCCC2=O)N1` (configuration not stated), for which the half-maximal activity concentration (AC50) reads like this: under setting [1], 1.12 µM [falling, full curve, poor fit]; under setting [2], 0.891 µM [falling, full curve, poor fit].

As to `O=C(OC(c1ccccc1)c1nccc2ccccc12)c1cccc([N+](=O)[O-])c1` (configuration not stated), the concentration at half-maximal activity (AC50) under setting [2] was 35.5 µM [rising, single point].

As for `Cc1nnc(NC(=O)c2ccc3ccccc3c2)o1`, the AC50 under setting [2] was 12.6 µM [rising, partial curve, poor fit].

Regarding `CN(C)c1ccc(-c2nn3c(-c4ccc(Cl)cc4Cl)nnc3s2)cc1`, the AC50 under setting [2] is 5.62 µM [rising, partial curve].

Consider `COc1cc(CNCCSc2nnnn2C)cc(Br)c1OCc1ccc(F)cc1`, for which the half-maximal activity concentration (AC50) under setting [2] is 31.6 µM [rising, single point].

Turning to `CC(C(=O)O)N1C(=O)/C(=C/c2cccn2C)SC1=S` (configuration not stated), the half-maximal activity concentration (AC50) by setting is: under setting [1], 5.01 µM [falling, partial curve]; under setting [2], 0.0126 µM [falling, full curve, poor fit].

As to `N/C(CSc1nc(-c2ccccc2)c(-c2ccccc2)o1)=N\O`, the AC50 under setting [1] was 14.1 µM [rising, single point].

Take `CC=C(/C(=C/C)c1ccc(O)cc1)c1ccc(O)cc1`: the AC50 under setting [1] was 3.55 µM [falling, single point] and the half-maximal activity concentration (AC50) under setting [2] is 0.01 µM [falling, full curve, poor fit].

Regarding `CCCC(=O)Nc1ccccc1Sc1ncnc2scc(-c3ccccc3)c12`, the half-maximal activity concentration (AC50) was 15.8 µM [rising, single point] under setting [1] and 12.6 µM [rising, partial curve, poor fit] under setting [2].

As for `Cc1[nH]c2ccccc2c1/C=N/Nc1ccc([N+](=O)[O-])cc1`, the half-maximal activity concentration (AC50) was 31.6 µM [rising, single point] under setting [1] and 35.5 µM [rising, single point] under setting [2].

As for `O=C(C1CCN(c2ncnc3c2nc2n3CCCCC2)CC1)N1CCN(c2ccc(F)cc2)CC1`, under setting [1], the half-maximal activity concentration (AC50) was 11.2 µM [falling, partial curve].

Consider `COc1cccc(C(=O)Nc2ccc(S(=O)(=O)Nc3cc(C)nc(C)n3)cc2)c1`, for which the AC50 under setting [1] was 6.31 µM [rising, partial curve, poor fit] and the half-maximal activity concentration (AC50) under setting [2] is 7.94 µM [rising, partial curve, poor fit].

In the case of `O=C(c1ccc(S(=O)(=O)c2ccccc2Cl)c([N+](=O)[O-])c1)N1CCCCCC1`, under setting [2], the AC50 is 15.8 µM [rising, partial curve].

For `COc1ccccc1-c1nc2ccccc2nc1-c1ccccc1`, the AC50 was 11.2 µM [rising, partial curve] under setting [1] and 20 µM [rising, single point] under setting [2].

For `CC(=O)Oc1cc2c(cc1Cl)C1(CC(c3ccccc3Cl)O2)CC(C)(C)NC(=S)N1` (configuration not stated), the concentration at half-maximal activity (AC50) under setting [1] is 22.4 µM [rising, single point] and the AC50 under setting [2] was 22.4 µM [rising, single point].

With `COc1cccc(-c2nnc(NC(=O)c3ccc(S(=O)(=O)N(CC(C)C)CC(C)C)cc3)o2)c1`, the concentration at half-maximal activity (AC50) under setting [2] is 4.47 µM [rising, partial curve].

Take `Cc1ccc(OCC(=O)NCC2(N3CCOCC3)CCCCC2)cc1C`: the concentration at half-maximal activity (AC50) under setting [2] was 0.00316 µM [falling, full curve, poor fit].

Take `CC1=CC(C)C2(CO)COC(c3ccc(O)cc3)C1C2C` (configuration not stated): the AC50 under setting [2] was 0.00355 µM [rising, full curve, poor fit].

As to `COc1ccc(CCN2C(=O)C(Oc3ccccc3C)C2c2ccc3c(c2)OCO3)cc1` (configuration not stated), the half-maximal activity concentration (AC50) under setting [2] is 35.5 µM [rising, single point].

For the compound `COC(=O)C1=C2SC(C)C(=O)N2C(N)=C(C#N)C1c1ccc(OC)c(OC)c1` (configuration not stated), the concentration at half-maximal activity (AC50) under setting [1] was 4.47 µM [rising, full curve, poor fit].

For `CN(c1ccccc1)S(=O)(=O)c1ccc(C(=O)Nc2nnc(-c3ccc(F)cc3)o2)cc1`, under setting [2], the AC50 was 2.82 µM [rising, single point].

As to `Nc1cc(S(=O)(=O)N2CCCCC2)ccc1Oc1ccc(Cl)cc1`, under setting [1], the AC50 was 11.2 µM [falling, partial curve, poor fit].

Consider `COc1ccc(CCNC(=O)CCN2C(=O)c3ccccc3C2=O)cc1OC`, for which the AC50 under setting [2] is 3.55 µM [falling, partial curve, poor fit].

For the compound `OC(COC(c1ccc(Cl)cc1)c1ccc(Cl)cc1)CN1CCN(c2ccccn2)CC1` (configuration not stated), the AC50 reads like this: under setting [1], 35.5 µM [falling, single point]; under setting [2], 35.5 µM [falling, single point].

As to `CCC(Oc1ccccc1)C(=O)Nc1ccc(S(=O)(=O)NCC2CCCO2)cc1` (configuration not stated), under setting [2], the AC50 was 11.2 µM [rising, partial curve].

Take `CN(C)CCCN1c2ccccc2Sc2ccc(C(F)(F)F)cc21`: the half-maximal activity concentration (AC50) reads like this: under setting [1], 12.6 µM [falling, partial curve]; under setting [2], 11.2 µM [falling, partial curve].

Take `Cc1cccc(NC(=O)c2cc(S(=O)(=O)NCc3ccc4c(c3)OCO4)ccc2F)c1C`: under setting [1], the AC50 was 8.91 µM [falling, partial curve, poor fit].

`Oc1ccc2oc3c(c2c1/C=N/n1cnnc1)CCCC3`: the AC50 under setting [2] was 0.282 µM [falling, full curve].

With `Cc1cc(C)c(C(CC(=O)c2cccs2)C(C#N)C#N)c(C)c1` (configuration not stated), under setting [2], the concentration at half-maximal activity (AC50) is 12.6 µM [rising, partial curve].

For `O=C(NCc1ccc2c(c1)CCN2C(=O)c1ccccc1)Nc1cc(F)ccc1F`, the concentration at half-maximal activity (AC50) under setting [1] is 0.562 µM [rising, single point].

Turning to `Cc1ccc(-c2csc3ncnc(NCCN4CCOCC4)c23)cc1`, the half-maximal activity concentration (AC50) reads like this: under setting [1], 10 µM [falling, partial curve]; under setting [2], 11.2 µM [falling, partial curve].

Take `CCOc1ccc(C(C)=O)cc1COC(=O)c1cccnc1SC`: the half-maximal activity concentration (AC50) is, setting by setting: under setting [1], 35.5 µM [falling, single point]; under setting [2], 35.5 µM [falling, single point].

For `CCCc1nnc(NC(=O)c2cccc(OC)c2)s1`, the half-maximal activity concentration (AC50) runs as follows: under setting [1], 5.62 µM [rising, full curve, poor fit]; under setting [2], 0.0126 µM [rising, full curve, poor fit].

With `COc1ccc(Cl)cc1NS(=O)(=O)c1ccc(S(=O)(=O)N2CCCC2)cc1`, the concentration at half-maximal activity (AC50) runs as follows: under setting [1], 11.2 µM [rising, partial curve]; under setting [2], 25.1 µM [rising, single point].

Regarding `CCOC(=O)c1c(C)sc(-c2c(-c3cc(C)ccc3C)[nH]c3c2c(=O)n(C)c(=O)n3C)c1O`, the AC50 is, setting by setting: under setting [1], 12.6 µM [rising, partial curve]; under setting [2], 7.94 µM [rising, partial curve].

`OCC1(Cc2ccc(Cl)cc2)CCN(CCCc2ccccc2)CC1`: the AC50 under setting [1] is 0.0708 µM [falling, partial curve, poor fit].

With `Cc1ccc(NS(=O)(=O)c2ccc(C(=O)N3CCN(c4ccccn4)CC3)cc2)cc1`, the half-maximal activity concentration (AC50) under setting [2] was 11.2 µM [rising, partial curve].

With `CCN(c1ccc(C)cc1)S(=O)(=O)c1nnc(NC(=O)C2CCCCC2)s1`, under setting [1], the AC50 was 1.58 µM [rising, partial curve, poor fit].

As for `CCCNC(=O)CSc1nc2ccccc2nc1Cc1ccc(Cl)cc1`, the AC50 is 3.16 µM [rising, partial curve] under setting [1] and 1.78 µM [rising, partial curve] under setting [2].

Take `CCOC(=O)/C(=C\c1ccc([N+](=O)[O-])cc1)C(=O)c1cc(C(C)=O)c(Nc2ccccc2)s1`: the AC50 is 5.01 µM [falling, single point] under setting [1] and 10 µM [falling, single point] under setting [2].

The values are drawn from PubChem BioAssay AID1487 (National Center for Advancing Translational Sciences (NCATS), 2009).
